From ChEMBL document CHEMBL4007391, “Tackling Fungal Resistance by Biofilm Inhibitors” (J Med Chem, 2017) come the findings set out here.

For the assay, the system named is Candida albicans. In words: Antibiofilm activity against Candida albicans CAIF-100 after 24 hrs by Cell-Titer Blue assay. It counts as functional.

SMILES strings stand for the structures.

Turning to `CN1CCN(CCCN2c3ccccc3Sc3ccc(Cl)cc32)CC1.O=S(=O)(O)CCS(=O)(=O)O` [PROCHLORPERAZINE EDISYLATE], the MBIC50 came out at 5.2 µM.
